Data as given in US20150232546A1 (THROMBOGENICS, published 2015).
Results are given in words; binding and its absence hold for the method and conditions named.

Assays:
Assay in all cases: peptide ELISA
[1] = biological target: T1, human PDGF-C peptide no. 37 (human)
T1 sequence (peptide, N-terminally biotinylated): LEPERWQLDLEDLYR

[2] = biological target: T2, human PDGF-C peptide no. 38 (human)
T2 sequence (peptide, N-terminally biotinylated): WQLDLEDLYRPTWQL

[3] = biological target: T3, human PDGF-C peptide no. 39 (human)
T3 sequence (peptide, N-terminally biotinylated): EDLYRPTWQLLGKAF

[4] = biological target: T4, human PDGF-C peptide no. 4 (human)
T4 sequence (peptide, N-terminally biotinylated): QNGVQDPQHERIITV

[5] = biological target: T5, human PDGF-C peptide no. 40 (human)
T5 sequence (peptide, N-terminally biotinylated): PTWQLLGKAFVFGRK

[6] = biological target: T6, human PDGF-C peptide no. 41 (human)
T6 sequence (peptide, N-terminally biotinylated): LGKAFVFGRKSRVVD

[7] = biological target: T7, human PDGF-C peptide no. 42 (human)
T7 sequence (peptide, N-terminally biotinylated): VFGRKSRVVDLNLLT

[8] = biological target: T8, human PDGF-C peptide no. 43 (human)
T8 sequence (peptide, N-terminally biotinylated): SRVVDLNLLTEEVRL

[9] = biological target: T9, human PDGF-C peptide no. 44 (human)
T9 sequence (peptide, N-terminally biotinylated): LNLLTEEVRLYSCTP

[10] = biological target: T10, human PDGF-C peptide no. 45 (human)
T10 sequence (peptide, N-terminally biotinylated): EEVRLYSCTPRNFSV

[11] = biological target: T11, human PDGF-C peptide no. 46 (human)
T11 sequence (peptide, N-terminally biotinylated): YSCTPRNFSVSIREE

[12] = biological target: T12, human PDGF-C peptide no. 47 (human)
T12 sequence (peptide, N-terminally biotinylated): RNFSVSIREELKRTD

[13] = biological target: T13, human PDGF-C peptide no. 48 (human)
T13 sequence (peptide, N-terminally biotinylated): SIREELKRTDTIFWP

[14] = biological target: T14, human PDGF-C peptide no. 49 (human)
T14 sequence (peptide, N-terminally biotinylated): LKRTDTIFWPGCLLV

[15] = biological target: T15, human PDGF-C peptide no. 5 (human)
T15 sequence (peptide, N-terminally biotinylated): DPQHERIITVSTNGS

[16] = biological target: T16, human PDGF-C peptide no. 50 (human)
T16 sequence (peptide, N-terminally biotinylated): TIFWPGCLLVKRCGG

[17] = biological target: T17, human PDGF-C peptide no. 51 (human)
T17 sequence (peptide, N-terminally biotinylated): GCLLVKRCGGNCACC

[18] = biological target: T18, human PDGF-C peptide no. 52 (human)
T18 sequence (peptide, N-terminally biotinylated): KRCGGNCACCLHNCN

[19] = biological target: T19, human PDGF-C peptide no. 53 (human)
T19 sequence (peptide, N-terminally biotinylated): NCACCLHNCNECQCV

[20] = biological target: T20, human PDGF-C peptide no. 54 (human)
T20 sequence (peptide, N-terminally biotinylated): LHNCNECQCVPSKVT

[21] = biological target: T21, human PDGF-C peptide no. 55 (human)
T21 sequence (peptide, N-terminally biotinylated): ECQCVPSKVTKKYHE

[22] = biological target: T22, human PDGF-C peptide no. 56 (human)
T22 sequence (peptide, N-terminally biotinylated): PSKVTKKYHEVLQLR

[23] = biological target: T23, human PDGF-C peptide no. 57 (human)
T23 sequence (peptide, N-terminally biotinylated): KKYHEVLQLRPKTGV

[24] = biological target: T24, human PDGF-C peptide no. 59 (human)
T24 sequence (peptide, N-terminally biotinylated): PKTGVRGLHKSLTDV

[25] = biological target: T25, human PDGF-C peptide no. 6 (human)
T25 sequence (peptide, N-terminally biotinylated): RIITVSTNGSIHSPR

[26] = biological target: T26, human PDGF-C peptide no. 60 (human)
T26 sequence (peptide, N-terminally biotinylated): RGLHKSLTDVALEHH

[27] = biological target: T27, human PDGF-C peptide no. 62 (human)
T27 sequence (peptide, N-terminally biotinylated): ALEHHEECDCVCRGS

[28] = biological target: T28, human PDGF-C peptide no. 63 (human)
T28 sequence (peptide, N-terminally biotinylated): EECDCVCRGSTGG

[29] = biological target: T29, human PDGF-C peptide no. 7 (human)
T29 sequence (peptide, N-terminally biotinylated): STNGSIHSPRFPHTY

[30] = biological target: T30, human PDGF-C peptide no. 8 (human)
T30 sequence (peptide, N-terminally biotinylated): IHSPRFPHTYPRNTV

Measured: binding

B1: anti-PDGF-C antibody 5A2 (antibody, IgG2b, V domains shown)
VH: EVQLVESGGDLVKPGGSLKLSCAASGFTFSNYGMSWVRQTPDKRLEWVATIGSGGHYTYYPDSVKGRFTISRDSAKSTLYLQMSSLKSEDTAIYYCARQAPLWDCSDYWGQGTTLTVSS
VL: DVLMTQTPLSLPVSLGDQASISCRSNQSIVHSNGDTYLEWYLQKPGQSPKLLIYKVSNRFSGVPDRFSGSGSGTDFTLKISRVEAEDLGVYYCFQGSHVPPTFGGGTKLEIK
notes: Mouse monoclonal from hybridoma, IgG2b, kappa; also called mAb 5A2; hybridoma LMBP 9484CB
no binding (tested: 1 µg/mL): all assays above
